Measurements published in the supplement of paper PMC3334620.
Whole data set: some 33,000 sequences, median “E-score (-0.5 to 0.5)” near -0.0014, cut for the highest 2% near 0.25. The list shows a part of the results.

biological target: T1, Cad1 (UniProt P24813); test: PBM E-score (8-mer binding enrichment) (E-score (-0.5 to 0.5)); higher = stronger / more preferred TF binding; conditions: protein concentration: 100 nM; construct: GST-full length
T1 sequence: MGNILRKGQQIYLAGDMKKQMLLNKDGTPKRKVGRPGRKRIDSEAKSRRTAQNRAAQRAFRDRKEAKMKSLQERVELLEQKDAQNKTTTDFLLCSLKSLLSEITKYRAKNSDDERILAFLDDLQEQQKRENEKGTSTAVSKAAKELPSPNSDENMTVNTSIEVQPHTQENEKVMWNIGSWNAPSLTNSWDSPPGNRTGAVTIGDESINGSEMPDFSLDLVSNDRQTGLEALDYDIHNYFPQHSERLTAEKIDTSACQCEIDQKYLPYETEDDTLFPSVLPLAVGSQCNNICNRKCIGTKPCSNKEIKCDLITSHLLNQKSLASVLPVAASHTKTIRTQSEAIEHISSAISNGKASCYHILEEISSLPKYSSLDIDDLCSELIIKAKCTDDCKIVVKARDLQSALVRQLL
How it was run: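 Yeast transcription factors, full-length or as DNA-binding domains, were expressed with a GST tag using PURExpress in vitro transcription/translation. At about 100-200 nM they were applied to universal all-10-mer Agilent arrays, double-stranded by primer extension on fresh or once-stripped slides. Fluorescent anti-GST detected bound protein, and masliner normalised the scans. E-scores for ungapped eight-base words, pooled with reverse complements, came from the Universal PBM Analysis Suite.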

Sequence	PBM E-score
ACAGGACT	-0.0713
GATCAGGA	-0.015
GATAGATA	-0.0537
ACGTAAAG	0.0971
AAACGACA	0.0852
AGTATTGA	0.0931
CCTCTGCG	-0.147
ACTTTATA	-0.0756
ACATGTGA	-0.105
CTGTTGAC	0.0587
CAGGGTGG	-0.185
ATACAAGC	-0.0237
CGACTGGC	-0.0974
CACATATC	0.127
ATCTGAGA	-0.0755
GATGACCA	0.0747
ATTCTACC	-0.0584
CAAAATAA	0.177
AGATACGC	-0.0142
ACGTCCTC	-0.0293
ATGTTCGA	0.115
ATTGACTC	0.0149
GCTCGGTA	-0.203
AGCATAAC	0.035
TACGGATA	0.116

Sequence	PBM E-score
GTCAGGGA	-0.125
GGCAGACA	-0.169
GCCCCAAA	-0.0417
TCGCTTCA	0.0104
GCTTGAAA	0.0794
GCGCTTCC	-0.024
ATAACGTC	0.0313
ACCGCAAG	0.0347
CTTTGTCA	0.278
AGACTTCC	-0.038
GATCATAC	0.0317
AGGAATGG	-0.127
AATACACC	0.255
CGACCTAG	0.0727
GGCTTTCA	-0.0154
GTTTCACA	0.08
CGTTGGAG	-0.134
CCTAGAGC	-0.276
CACGCCTA	-0.213
CGGATTAC	0.166
ACGCACAA	0.0589
AGTCAAAG	-0.225
AATGAAGG	-0.104
ACGTGCCC	-0.00982
GCCGCCCA	-0.0607

Sequence	PBM E-score
GACTGCCA	0.144
AGTCTGGA	0.0431
AACAAACG	-0.0741
GCTTCCTA	0.164
CCTCGATA	0.218
CAGAGAAC	-0.0414
TTAGGGAA	0.0134
AGGCACGA	-0.154
ATGAAAGC	-0.00029
TCTCTACA	0.118
GCGGTCCC	-0.243
GCGCACAC	0.0207
CGCAACGC	-0.0184
CAAGTCAC	-0.125
GAGCACCC	-0.102
GGGGATAC	-0.265
ACAGTTTA	-0.0213
CAGATTTC	0.117
CCGTAATC	0.143
CACTTGGC	-0.185
CCTATTCA	-0.136
AACTCCCC	-0.167
TCTACTCA	-0.043
CCTTAGAG	-0.368
CCGTCGTA	-0.027

Sequence	PBM E-score
CCTCAGCA	-0.0312
GAGAGGAC	-0.133
AGGCGATG	-0.0126
CGAACTCG	0.208
GAACTGTC	-0.00719
TTATAAAA	0.191
ACTCGCAG	0.0863
AACAATGC	0.166
CAGAGGCC	-0.228
CACTGCGG	0.0398
TCTCCACA	-0.0481
GCGCACGA	0.205
GGATATCA	0.0725
GTATGGAC	0.00732
GAAAATCC	0.0577
ACGAGATA	-0.0139
AAGGACCC	-0.24
AAGACCCT	-0.156
GCATTATA	0.101
ATAAATAG	0.121
CTGCAGAC	0.0731
CAGAATAA	0.104
AGGCCTAG	-0.139
AACCCTAT	0.0637
AGTTCAAA	0.0853

Sequence	PBM E-score
GCTCAATA	0.0491
CCAGATAC	0.0244
GGTGCGAC	-0.177
CAATCTAC	-0.0979
CCGGCATA	-0.0316
CGTCTAAA	-0.136
GCTCGGCA	0.0523
CTGAGTAC	-0.06
GTCTATTA	-0.0296
CTTTAGAC	-0.141
AATTCCCC	0.11
CGTGGTTC	-0.122
CACCCGTG	-0.184
CTAGGAAG	-0.0579
TCCTGTCA	0.103
TCAGTAGA	-0.0953
AAGTACAT	0.0691
GGAATGAA	0.162
ACTGCCCC	-0.052
AAGTTCGC	-0.0383
CTGTAATA	0.143
ATAAAAAT	0.152
CCCGGGGA	-0.231
CTCGAGCC	0.0755
AAGAACGC	0.0173

Sequence	PBM E-score
ATTGGTTG	0.0297
AGATCTTC	-0.083
ATTGCTGA	0.223
GATAGAAC	0.0144
ATCCGGAC	0.131
CCGGCCAG	-0.109
GAATGTAC	0.0593
CCCCATTA	-0.211
ATTTACAC	-0.065
CGGCTAAC	0.182
GATTTCCC	0.118
ATTAGGAA	0.119
AACGTTAA	0.167
AGCGGACT	-0.253
ATACTAGC	0.0804
GATGACTA	0.172
GGATCAAC	0.0489
CAATGTAC	-0.165
ATAAGGTA	0.0374
TCCTTCGA	-0.054
GATCGAAA	0.128
AAGAGTTC	-0.156
GAAGATTC	0.0467
GAAAGTTC	-0.0406
ACAACGCT	-0.0443

Sequence	PBM E-score
AGTAGGTA	-0.0597
CTTTCGCC	-0.0927
GAACACTC	0.0646
CCGCCTAA	-0.0319
GCTGCCGA	-0.0957
GTACTCTA	-0.162
CGGTAGAC	0.00118
AATTGCGA	0.0416
AACGTCCT	-0.0973
AGACAAGA	0.0567
TAACACAA	0.178
AGCTTGGA	-0.205
ACAGGTCC	-0.124
AATATCAA	0.138
ACGCTGCA	-0.0162
CCGAGAAC	0.0446
GCAAATCA	0.101
ATATCGTC	0.0847
AACCTCTT	0.134
AACGCTAC	-0.162
AGGATCCA	-0.0192
AAGCTCAT	-0.026
